Measured values: patent publication US12578343B2, “Selective ACKR3 modulators and uses thereof” (Luxembourg Institute of Health (LIH), priority 2019, dated 2026)
For at least one compound, name, drawing or mass did not settle the structure.

Sequences of proteins named here, by UniProt entry; tags and fusion partners are left off. A change or cut given only in a name is not applied to a line headed by its entry.
UniProt P25106: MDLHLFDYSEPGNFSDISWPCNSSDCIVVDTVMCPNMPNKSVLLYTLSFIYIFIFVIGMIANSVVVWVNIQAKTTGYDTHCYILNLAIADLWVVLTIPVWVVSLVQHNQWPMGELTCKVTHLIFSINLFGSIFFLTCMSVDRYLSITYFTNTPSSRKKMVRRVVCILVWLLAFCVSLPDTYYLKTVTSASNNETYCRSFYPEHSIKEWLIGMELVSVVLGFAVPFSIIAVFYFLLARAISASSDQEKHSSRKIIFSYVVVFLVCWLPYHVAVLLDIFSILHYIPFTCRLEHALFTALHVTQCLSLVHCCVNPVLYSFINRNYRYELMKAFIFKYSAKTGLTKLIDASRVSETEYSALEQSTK

Tests used:
[1] = molecular target: T1, ACKR3 (Homo sapiens, UniProt P25106); format: cell-based; set-up: expressed in transfected cells; host or cells: U87 cells, transient co-transfection of pNBe vectors; conditions: U87 cells
[2] = molecular target: T1, ACKR3; assay: Uptake of fluorescently labelled opioid peptides by ACKR3-expressing U87 cells, imaging flow cytometry; format: cell-based; set-up: expressed in transfected cells; for the receptor comparison in the uptake assay, transient pcDNA3.1); conditions: 40 minutes at 37° C.

CC(C)C[C@H](NC(=O)[C@H](CCCCN)NC(=O)[C@H](CCCN=C(N)N)NC(=O)[C@H](C)NC(=O)[C@H](CO)NC(=O)[C@H](CCCCN)NC(=O)[C@H](CCCN=C(N)N)NC(=O)[C@H](C)NC(=O)CNC(=O)[C@@H](NC(=O)[C@H](Cc1ccccc1)NC(=O)CNC(=O)CNC(=O)[C@@H](N)Cc1ccccc1)[C@@H](C)O)C(=O)N[C@@H](C)C(=O)N[C@@H](CC(N)=O)C(=O)N[C@@H](CCC(N)=O)C(=O)O [nociceptin, reference compound]
β-arrestin recruitment to ACKR3: agonist activity/potency in words [1]: Higher concentrations | uptake of the fluorescently labelled peptide by ACKR3-expressing cells (also versus classical opioid receptor) [2]: internalised by ACKR3 to a degree equivalent to the corresponding classical opioid receptor NOP
